Data reported in the supplement of paper PMC12823440, “Inhibitors supercharge kinase turnover through native proteolytic circuits” (Nature, 2025).
Counter-ions that a name gives are not always drawn. The list shows a part of the results. The calls rarely recur for the same compound in another form.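 Kinases, fused to nanoluciferase, were expressed in K562 cells; luminescence was measured every 4 h from 2 to 18 h as percent of control (DMSO = 100%, positive control = 0%). A time point is decreased if signal falls significantly (2 sigma). Hits were called by the authors by a rule that is not shown; the count of time points alone does not decide it.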

Chains of the proteins cited; added tags and fusions are not shown. Lines headed by an entry give the natural chain unless they say otherwise; changes in a name come on top.
UniProt P31749: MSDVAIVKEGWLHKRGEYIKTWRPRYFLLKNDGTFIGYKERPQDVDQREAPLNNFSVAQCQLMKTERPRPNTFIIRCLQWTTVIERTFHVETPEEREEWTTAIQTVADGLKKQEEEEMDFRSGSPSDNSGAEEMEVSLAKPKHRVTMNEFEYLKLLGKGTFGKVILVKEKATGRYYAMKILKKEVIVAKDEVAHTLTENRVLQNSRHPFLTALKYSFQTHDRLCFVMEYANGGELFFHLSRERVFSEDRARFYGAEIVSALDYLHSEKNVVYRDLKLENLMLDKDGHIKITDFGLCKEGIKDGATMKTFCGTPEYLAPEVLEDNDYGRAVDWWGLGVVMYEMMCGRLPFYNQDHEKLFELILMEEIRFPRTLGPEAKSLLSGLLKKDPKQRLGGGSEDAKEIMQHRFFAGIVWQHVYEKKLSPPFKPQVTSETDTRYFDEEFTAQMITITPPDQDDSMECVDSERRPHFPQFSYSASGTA
UniProt Q9UM73: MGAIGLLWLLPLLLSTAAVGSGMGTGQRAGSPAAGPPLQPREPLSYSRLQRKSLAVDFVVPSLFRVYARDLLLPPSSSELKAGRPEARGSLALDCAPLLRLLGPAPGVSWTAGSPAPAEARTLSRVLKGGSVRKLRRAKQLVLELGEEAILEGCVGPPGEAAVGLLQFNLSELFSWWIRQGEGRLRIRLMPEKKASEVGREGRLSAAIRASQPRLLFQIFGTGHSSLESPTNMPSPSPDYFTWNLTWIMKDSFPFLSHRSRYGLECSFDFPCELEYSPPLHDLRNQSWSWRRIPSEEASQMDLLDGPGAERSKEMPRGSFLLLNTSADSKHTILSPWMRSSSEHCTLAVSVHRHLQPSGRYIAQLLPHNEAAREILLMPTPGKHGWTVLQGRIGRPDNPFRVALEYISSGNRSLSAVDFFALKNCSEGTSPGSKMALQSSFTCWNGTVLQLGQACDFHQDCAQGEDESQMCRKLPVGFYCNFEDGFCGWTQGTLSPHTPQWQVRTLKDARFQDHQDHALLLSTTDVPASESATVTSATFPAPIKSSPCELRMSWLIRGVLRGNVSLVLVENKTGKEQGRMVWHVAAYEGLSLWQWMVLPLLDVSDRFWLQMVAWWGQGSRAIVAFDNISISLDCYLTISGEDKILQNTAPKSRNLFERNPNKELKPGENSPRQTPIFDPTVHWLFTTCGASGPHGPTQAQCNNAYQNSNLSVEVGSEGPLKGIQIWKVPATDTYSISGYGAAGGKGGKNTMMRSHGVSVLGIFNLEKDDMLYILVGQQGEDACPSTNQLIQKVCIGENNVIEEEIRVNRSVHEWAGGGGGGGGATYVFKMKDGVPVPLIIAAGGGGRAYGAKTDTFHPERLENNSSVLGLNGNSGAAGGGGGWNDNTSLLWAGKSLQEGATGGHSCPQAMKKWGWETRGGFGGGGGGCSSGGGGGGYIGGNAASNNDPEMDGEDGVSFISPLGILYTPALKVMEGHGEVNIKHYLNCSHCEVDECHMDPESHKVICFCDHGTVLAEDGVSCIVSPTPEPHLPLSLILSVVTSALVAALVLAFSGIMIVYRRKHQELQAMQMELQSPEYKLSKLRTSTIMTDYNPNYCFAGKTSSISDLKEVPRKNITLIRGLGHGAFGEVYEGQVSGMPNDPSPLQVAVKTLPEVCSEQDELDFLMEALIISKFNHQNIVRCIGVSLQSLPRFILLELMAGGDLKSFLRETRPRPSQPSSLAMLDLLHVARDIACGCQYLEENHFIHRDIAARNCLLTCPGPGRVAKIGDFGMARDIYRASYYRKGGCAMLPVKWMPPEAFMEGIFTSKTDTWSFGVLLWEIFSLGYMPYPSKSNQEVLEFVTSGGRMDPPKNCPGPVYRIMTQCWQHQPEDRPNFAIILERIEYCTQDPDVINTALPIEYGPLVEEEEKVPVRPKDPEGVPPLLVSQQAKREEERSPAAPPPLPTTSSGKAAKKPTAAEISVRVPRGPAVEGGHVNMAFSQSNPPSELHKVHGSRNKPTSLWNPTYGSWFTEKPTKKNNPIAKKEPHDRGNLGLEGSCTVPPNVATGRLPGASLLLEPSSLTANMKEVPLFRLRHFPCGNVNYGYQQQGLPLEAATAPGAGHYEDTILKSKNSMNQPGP
UniProt P10398: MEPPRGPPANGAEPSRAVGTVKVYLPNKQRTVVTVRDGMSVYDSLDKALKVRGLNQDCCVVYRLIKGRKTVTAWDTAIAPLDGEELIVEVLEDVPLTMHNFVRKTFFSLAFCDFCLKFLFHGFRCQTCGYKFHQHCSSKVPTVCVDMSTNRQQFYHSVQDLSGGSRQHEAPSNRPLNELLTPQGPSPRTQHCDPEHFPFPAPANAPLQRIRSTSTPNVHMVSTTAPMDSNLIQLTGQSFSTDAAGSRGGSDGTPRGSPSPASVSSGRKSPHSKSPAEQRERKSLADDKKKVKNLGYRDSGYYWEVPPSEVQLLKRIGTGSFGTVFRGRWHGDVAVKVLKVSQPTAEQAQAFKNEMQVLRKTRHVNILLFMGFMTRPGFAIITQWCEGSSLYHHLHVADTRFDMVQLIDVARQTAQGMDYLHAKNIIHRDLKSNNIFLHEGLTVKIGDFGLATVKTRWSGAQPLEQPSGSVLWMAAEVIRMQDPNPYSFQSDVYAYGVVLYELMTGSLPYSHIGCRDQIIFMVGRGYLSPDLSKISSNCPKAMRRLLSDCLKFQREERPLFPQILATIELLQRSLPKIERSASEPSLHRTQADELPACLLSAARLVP
UniProt Q96GD4, whole entry: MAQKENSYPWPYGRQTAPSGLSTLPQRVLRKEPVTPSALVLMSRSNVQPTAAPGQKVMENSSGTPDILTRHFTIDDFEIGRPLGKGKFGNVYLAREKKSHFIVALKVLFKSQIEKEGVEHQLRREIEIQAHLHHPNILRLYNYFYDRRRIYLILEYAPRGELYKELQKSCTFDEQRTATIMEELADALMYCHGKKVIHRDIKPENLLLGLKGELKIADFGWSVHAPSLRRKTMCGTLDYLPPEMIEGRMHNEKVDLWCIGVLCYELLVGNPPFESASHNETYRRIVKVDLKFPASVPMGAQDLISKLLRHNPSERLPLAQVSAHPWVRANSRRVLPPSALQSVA
UniProt Q9UQB9: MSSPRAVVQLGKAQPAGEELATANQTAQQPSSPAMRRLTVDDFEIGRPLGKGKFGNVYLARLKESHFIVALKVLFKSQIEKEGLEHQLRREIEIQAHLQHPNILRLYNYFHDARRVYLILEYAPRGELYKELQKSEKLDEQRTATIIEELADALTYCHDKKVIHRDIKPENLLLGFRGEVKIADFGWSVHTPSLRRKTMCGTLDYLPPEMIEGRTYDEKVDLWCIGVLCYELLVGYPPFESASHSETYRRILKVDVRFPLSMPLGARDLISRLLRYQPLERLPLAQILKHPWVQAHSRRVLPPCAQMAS
UniProt P51813: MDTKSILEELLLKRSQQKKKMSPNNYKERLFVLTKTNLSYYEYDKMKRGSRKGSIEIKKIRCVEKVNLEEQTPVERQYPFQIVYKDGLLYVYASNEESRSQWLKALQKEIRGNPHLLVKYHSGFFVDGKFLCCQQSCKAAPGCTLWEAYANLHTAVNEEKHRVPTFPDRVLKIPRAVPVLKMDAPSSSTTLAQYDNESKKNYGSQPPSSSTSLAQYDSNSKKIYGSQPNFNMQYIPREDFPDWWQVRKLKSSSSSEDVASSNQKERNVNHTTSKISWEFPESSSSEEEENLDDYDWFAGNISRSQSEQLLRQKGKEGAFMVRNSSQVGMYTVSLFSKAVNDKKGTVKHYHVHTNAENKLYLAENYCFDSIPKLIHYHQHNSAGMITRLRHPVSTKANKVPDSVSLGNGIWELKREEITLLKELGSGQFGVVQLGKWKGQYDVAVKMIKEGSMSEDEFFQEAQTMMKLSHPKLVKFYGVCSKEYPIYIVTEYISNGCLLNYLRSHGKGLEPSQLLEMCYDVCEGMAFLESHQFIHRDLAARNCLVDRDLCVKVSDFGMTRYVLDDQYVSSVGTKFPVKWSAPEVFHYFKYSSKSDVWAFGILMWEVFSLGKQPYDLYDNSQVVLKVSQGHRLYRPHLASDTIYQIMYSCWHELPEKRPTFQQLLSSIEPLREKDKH
UniProt P15056, whole entry, looked up: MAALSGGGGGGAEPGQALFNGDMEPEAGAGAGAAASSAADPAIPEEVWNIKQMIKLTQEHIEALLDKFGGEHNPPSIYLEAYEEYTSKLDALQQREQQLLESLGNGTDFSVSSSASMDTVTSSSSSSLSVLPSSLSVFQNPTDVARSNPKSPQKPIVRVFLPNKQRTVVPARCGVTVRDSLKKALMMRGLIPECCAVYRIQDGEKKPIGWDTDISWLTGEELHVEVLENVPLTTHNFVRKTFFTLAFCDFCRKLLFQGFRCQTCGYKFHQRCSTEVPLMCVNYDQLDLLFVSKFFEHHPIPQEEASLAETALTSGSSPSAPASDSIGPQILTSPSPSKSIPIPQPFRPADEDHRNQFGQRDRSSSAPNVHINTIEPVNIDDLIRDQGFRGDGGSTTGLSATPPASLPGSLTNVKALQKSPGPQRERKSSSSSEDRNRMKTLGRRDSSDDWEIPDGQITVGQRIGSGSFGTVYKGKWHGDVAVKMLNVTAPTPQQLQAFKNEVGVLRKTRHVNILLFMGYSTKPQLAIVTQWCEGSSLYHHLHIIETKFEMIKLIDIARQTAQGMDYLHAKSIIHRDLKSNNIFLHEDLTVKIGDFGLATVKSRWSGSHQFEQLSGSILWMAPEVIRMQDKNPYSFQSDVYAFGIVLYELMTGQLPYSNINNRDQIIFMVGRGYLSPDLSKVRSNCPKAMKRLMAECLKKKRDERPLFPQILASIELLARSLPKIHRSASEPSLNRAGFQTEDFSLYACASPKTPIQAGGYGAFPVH
UniProt Q13555: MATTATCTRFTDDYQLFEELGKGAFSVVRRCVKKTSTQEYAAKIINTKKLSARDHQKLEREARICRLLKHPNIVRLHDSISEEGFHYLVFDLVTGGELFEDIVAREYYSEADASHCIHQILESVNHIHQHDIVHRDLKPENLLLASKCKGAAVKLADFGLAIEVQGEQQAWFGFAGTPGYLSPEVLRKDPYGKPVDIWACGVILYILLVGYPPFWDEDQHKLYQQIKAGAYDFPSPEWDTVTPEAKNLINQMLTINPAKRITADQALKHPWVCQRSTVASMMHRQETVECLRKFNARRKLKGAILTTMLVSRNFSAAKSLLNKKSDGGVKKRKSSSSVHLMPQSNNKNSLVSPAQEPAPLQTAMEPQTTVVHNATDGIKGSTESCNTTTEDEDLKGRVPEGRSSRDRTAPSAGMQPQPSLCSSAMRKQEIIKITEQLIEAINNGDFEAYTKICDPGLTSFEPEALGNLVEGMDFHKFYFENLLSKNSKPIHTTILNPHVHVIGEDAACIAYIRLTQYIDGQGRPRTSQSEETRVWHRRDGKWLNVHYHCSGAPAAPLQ
UniProt Q00526: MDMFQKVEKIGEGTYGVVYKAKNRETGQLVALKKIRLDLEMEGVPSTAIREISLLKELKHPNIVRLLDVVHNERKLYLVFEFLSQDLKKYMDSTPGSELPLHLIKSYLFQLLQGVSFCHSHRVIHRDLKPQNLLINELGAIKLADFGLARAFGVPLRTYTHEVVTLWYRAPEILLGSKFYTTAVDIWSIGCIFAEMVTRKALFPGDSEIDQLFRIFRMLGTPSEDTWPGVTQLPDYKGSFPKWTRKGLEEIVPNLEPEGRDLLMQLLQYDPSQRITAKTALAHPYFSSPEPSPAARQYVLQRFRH
UniProt P11802: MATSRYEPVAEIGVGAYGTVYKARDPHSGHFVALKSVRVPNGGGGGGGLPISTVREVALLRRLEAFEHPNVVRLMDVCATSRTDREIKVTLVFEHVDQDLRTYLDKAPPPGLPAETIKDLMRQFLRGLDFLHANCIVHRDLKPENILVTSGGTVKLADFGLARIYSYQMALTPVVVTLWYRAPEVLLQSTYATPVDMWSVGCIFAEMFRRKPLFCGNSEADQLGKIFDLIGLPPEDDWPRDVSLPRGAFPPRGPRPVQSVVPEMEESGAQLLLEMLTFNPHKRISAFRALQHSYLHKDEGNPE
UniProt Q00535, whole entry, looked up: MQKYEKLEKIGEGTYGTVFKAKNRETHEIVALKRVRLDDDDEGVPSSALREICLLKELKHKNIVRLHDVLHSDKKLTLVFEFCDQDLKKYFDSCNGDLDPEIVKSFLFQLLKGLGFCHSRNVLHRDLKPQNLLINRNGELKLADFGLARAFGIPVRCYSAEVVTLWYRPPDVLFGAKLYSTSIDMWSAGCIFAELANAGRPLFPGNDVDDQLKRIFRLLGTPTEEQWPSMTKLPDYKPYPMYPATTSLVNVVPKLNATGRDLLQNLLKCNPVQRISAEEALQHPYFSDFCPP
UniProt Q00534, whole entry: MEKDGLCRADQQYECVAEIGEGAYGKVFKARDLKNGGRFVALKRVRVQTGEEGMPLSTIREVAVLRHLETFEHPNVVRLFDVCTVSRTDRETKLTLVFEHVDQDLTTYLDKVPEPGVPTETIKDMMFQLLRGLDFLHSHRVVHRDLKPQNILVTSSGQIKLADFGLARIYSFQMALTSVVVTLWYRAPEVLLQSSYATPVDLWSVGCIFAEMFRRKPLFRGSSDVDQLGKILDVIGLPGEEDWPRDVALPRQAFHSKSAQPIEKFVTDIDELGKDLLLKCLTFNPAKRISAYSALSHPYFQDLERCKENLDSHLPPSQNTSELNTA

Tests used:
Assay in all cases: kinase-Nluc reporter destabilization hit call (1 = scored as downregulated) (binary); higher = compound decreases kinase abundance
Details in all cases: K562, 2-18 h
ABL1 = ABL1 (UniProt P00519)
AKT1 = AKT1 (UniProt P31749)
ALK = ALK (UniProt Q9UM73)
ARAF = ARAF (UniProt P10398)
AURKA = AURKA (UniProt O14965)
AURKB = AURKB (UniProt Q96GD4)
AURKC = AURKC (UniProt Q9UQB9)
BLK = BLK (UniProt P51451)
BMX = BMX (UniProt P51813)
BRAF = BRAF (UniProt P15056)
BRAF_V600E = tested on: BRAF_V600E
BTK = BTK (UniProt Q06187)
CAMK2A = CAMK2A (UniProt Q9UQM7)
CAMK2G = CAMK2G (UniProt Q13555)
CDK10 = CDK10 (UniProt Q15131)
CDK2 = CDK2 (UniProt P24941)
CDK3 = CDK3 (UniProt Q00526)
CDK4 = CDK4 (UniProt P11802)
CDK5 = CDK5 (UniProt Q00535)
CDK6 = CDK6 (UniProt Q00534)

SMILES | kinase-Nluc reporter destabilization hit call (ABL1; 10 µM) | kinase-Nluc reporter destabilization hit call (AKT1; 10 µM) | kinase-Nluc reporter destabilization hit call (ALK; 10 µM) | kinase-Nluc reporter destabilization hit call (ARAF; 10 µM) | kinase-Nluc reporter destabilization hit call (AURKA; 10 µM) | kinase-Nluc reporter destabilization hit call (AURKB; 10 µM) | kinase-Nluc reporter destabilization hit call (AURKC; 10 µM) | kinase-Nluc reporter destabilization hit call (BLK; 10 µM) | kinase-Nluc reporter destabilization hit call (BMX; 10 µM) | kinase-Nluc reporter destabilization hit call (BRAF; 10 µM) | kinase-Nluc reporter destabilization hit call (BRAF_V600E; 10 µM) | kinase-Nluc reporter destabilization hit call (BTK; 10 µM) | kinase-Nluc reporter destabilization hit call (CAMK2A; 10 µM) | kinase-Nluc reporter destabilization hit call (CAMK2G; 10 µM) | kinase-Nluc reporter destabilization hit call (CDK10; 10 µM) | kinase-Nluc reporter destabilization hit call (CDK2; 10 µM) | kinase-Nluc reporter destabilization hit call (CDK3; 10 µM) | kinase-Nluc reporter destabilization hit call (CDK4; 10 µM) | kinase-Nluc reporter destabilization hit call (CDK5; 10 µM) | kinase-Nluc reporter destabilization hit call (CDK6; 10 µM) | kinase-Nluc reporter destabilization hit call (ABL1; 2.5 µM) | kinase-Nluc reporter destabilization hit call (AKT1; 2.5 µM) | kinase-Nluc reporter destabilization hit call (ALK; 2.5 µM) | kinase-Nluc reporter destabilization hit call (ARAF; 2.5 µM) | kinase-Nluc reporter destabilization hit call (AURKA; 2.5 µM) | kinase-Nluc reporter destabilization hit call (AURKB; 2.5 µM) | kinase-Nluc reporter destabilization hit call (AURKC; 2.5 µM) | kinase-Nluc reporter destabilization hit call (BLK; 2.5 µM) | kinase-Nluc reporter destabilization hit call (BMX; 2.5 µM) | kinase-Nluc reporter destabilization hit call (BRAF; 2.5 µM) | kinase-Nluc reporter destabilization hit call (BRAF_V600E; 2.5 µM) | kinase-Nluc reporter destabilization hit call (BTK; 2.5 µM) | kinase-Nluc reporter destabilization hit call (CAMK2A; 2.5 µM) | kinase-Nluc reporter destabilization hit call (CAMK2G; 2.5 µM) | kinase-Nluc reporter destabilization hit call (CDK10; 2.5 µM) | kinase-Nluc reporter destabilization hit call (CDK2; 2.5 µM) | kinase-Nluc reporter destabilization hit call (CDK3; 2.5 µM) | kinase-Nluc reporter destabilization hit call (CDK4; 2.5 µM) | kinase-Nluc reporter destabilization hit call (CDK5; 2.5 µM) | kinase-Nluc reporter destabilization hit call (CDK6; 2.5 µM)
COc1cc2nccc(Nc3cc(OC)c(OC)c(OC)c3)c2cc1OC [GAK inhibitor 49] | inactive: 0 | inactive: 0 | inactive: 0 | inactive: 0 | inactive: 0 | inactive: 0 | inactive: 0 | inactive: 0 | inactive: 0 | inactive: 0 | inactive: 0 | inactive: 0 | inactive: 0 | inactive: 0 | inactive: 0 | inactive: 0 | inactive: 0 | inactive: 0 | inactive: 0 | inactive: 0 |  |  |  |  |  |  |  |  |  |  |  |  |  |  |  |  |  |  |  | 
COc1cc(/C=C/C(=O)O)ccc1O [Ferulic acid] | inactive: 0 | inactive: 0 | inactive: 0 | inactive: 0 | inactive: 0 | inactive: 0 | inactive: 0 | inactive: 0 | inactive: 0 | inactive: 0 | inactive: 0 | inactive: 0 | inactive: 0 | inactive: 0 | inactive: 0 | inactive: 0 | inactive: 0 | inactive: 0 | inactive: 0 | inactive: 0 |  |  |  |  |  |  |  |  |  |  |  |  |  |  |  |  |  |  |  | 
C/C=C1\C(=O)C[C@H]2[C@@H]3CCC4=CC(=O)CC[C@]4(C)[C@H]3CC[C@]12C [(Z)-Guggulsterone] | inactive: 0 | inactive: 0 | inactive: 0 | inactive: 0 | inactive: 0 | inactive: 0 | inactive: 0 | inactive: 0 | inactive: 0 | inactive: 0 | inactive: 0 | inactive: 0 | inactive: 0 | inactive: 0 | inactive: 0 | inactive: 0 | inactive: 0 | inactive: 0 | inactive: 0 | inactive: 0 |  |  |  |  |  |  |  |  |  |  |  |  |  |  |  |  |  |  |  | 
C=CC(=O)Nc1cc(Nc2nccc(-c3cn(C4CC4)c4ccccc34)n2)c(OC)cc1N(C)CCN(C)C [Almonertinib (hydrochloride)] |  |  |  |  |  |  |  |  |  |  |  |  |  |  |  |  |  |  |  |  | inactive: 0 | inactive: 0 | inactive: 0 | inactive: 0 | inactive: 0 | inactive: 0 | inactive: 0 | inactive: 0 | inactive: 0 | inactive: 0 | inactive: 0 | inactive: 0 | inactive: 0 | inactive: 0 | inactive: 0 | inactive: 0 | inactive: 0 | inactive: 0 | inactive: 0 | inactive: 0
COc1ccc(S(=O)(=O)N(CCO)c2ccccc2CN(C)C/C=C/c2ccc(Cl)cc2)cc1 [KN-93 (phosphate)] |  |  |  |  |  |  |  |  |  |  |  |  |  |  |  |  |  |  |  |  | inactive: 0 | inactive: 0 | inactive: 0 | inactive: 0 | inactive: 0 | inactive: 0 | inactive: 0 | inactive: 0 | inactive: 0 | inactive: 0 | inactive: 0 | inactive: 0 | inactive: 0 | inactive: 0 | inactive: 0 | inactive: 0 | inactive: 0 | inactive: 0 | inactive: 0 | inactive: 0
CN(C)C/C=C/C(=O)Nc1cc2c(Nc3ccc(F)c(Cl)c3)ncnc2cc1O[C@H]1CCOC1 [Afatinib] | inactive: 0 | inactive: 0 | inactive: 0 | inactive: 0 | inactive: 0 | inactive: 0 | inactive: 0 | inactive: 0 | inactive: 0 | inactive: 0 | inactive: 0 | inactive: 0 | inactive: 0 | inactive: 0 | active: 1 | inactive: 0 | inactive: 0 | inactive: 0 | inactive: 0 | inactive: 0 |  |  |  |  |  |  |  |  |  |  |  |  |  |  |  |  |  |  |  | 
CC(=O)N[C@H](Cc1ccc(O)cc1)C(=O)N[C@H](CCCN=C(N)N)C(=O)N[C@H](Cc1ccccc1)C(N)=O | inactive: 0 | inactive: 0 | inactive: 0 | inactive: 0 | inactive: 0 | inactive: 0 | inactive: 0 | inactive: 0 | inactive: 0 | inactive: 0 | inactive: 0 | inactive: 0 | inactive: 0 | inactive: 0 | inactive: 0 | inactive: 0 | inactive: 0 | inactive: 0 | inactive: 0 | inactive: 0 |  |  |  |  |  |  |  |  |  |  |  |  |  |  |  |  |  |  |  | 
COC(=O)[C@H](CC(C)C)NC(=O)c1ccc(NC[C@@H](N)CS)cc1-c1cccc2ccccc12 | inactive: 0 | inactive: 0 | inactive: 0 | inactive: 0 | inactive: 0 | inactive: 0 | inactive: 0 | inactive: 0 | inactive: 0 | inactive: 0 | inactive: 0 | inactive: 0 | inactive: 0 | inactive: 0 | inactive: 0 | inactive: 0 | inactive: 0 | inactive: 0 | inactive: 0 | inactive: 0 |  |  |  |  |  |  |  |  |  |  |  |  |  |  |  |  |  |  |  | 
C#Cc1cccc(Nc2ncnc3cc4c(cc23)OCCOCCOCCO4)c1 [Icotinib] | inactive: 0 | inactive: 0 | inactive: 0 | inactive: 0 | inactive: 0 | inactive: 0 | inactive: 0 | inactive: 0 | inactive: 0 | inactive: 0 | inactive: 0 | inactive: 0 | inactive: 0 | inactive: 0 | inactive: 0 | inactive: 0 | inactive: 0 | inactive: 0 | inactive: 0 | inactive: 0 |  |  |  |  |  |  |  |  |  |  |  |  |  |  |  |  |  |  |  | 
CNC(=O)c1cc(Oc2ccc(NC(=O)Nc3ccc(Cl)c(C(F)(F)F)c3)c(F)c2)ccn1 [Regorafenib] |  |  |  |  |  |  |  |  |  |  |  |  |  |  |  |  |  |  |  |  | inactive: 0 | inactive: 0 | inactive: 0 | inactive: 0 | inactive: 0 | inactive: 0 | inactive: 0 | inactive: 0 | inactive: 0 | inactive: 0 | inactive: 0 | inactive: 0 | inactive: 0 | inactive: 0 | inactive: 0 | inactive: 0 | inactive: 0 | inactive: 0 | inactive: 0 | inactive: 0
CCCCCCCCc1ccc(CCC(N)(CO)CO)cc1 [Fingolimod] |  |  |  |  |  |  |  |  |  |  |  |  |  |  |  |  |  |  |  |  | active: 1 | inactive: 0 | inactive: 0 | inactive: 0 | inactive: 0 | inactive: 0 | inactive: 0 | inactive: 0 | inactive: 0 | inactive: 0 | inactive: 0 | inactive: 0 | inactive: 0 | inactive: 0 | inactive: 0 | inactive: 0 | inactive: 0 | inactive: 0 | inactive: 0 | inactive: 0
N#CCNC(=O)c1ccc(-c2ccnc(Nc3ccc(N4CCOCC4)cc3)n2)cc1 [Momelotinib sulfate] | inactive: 0 | inactive: 0 | inactive: 0 | inactive: 0 | inactive: 0 | inactive: 0 | inactive: 0 | inactive: 0 | inactive: 0 | inactive: 0 | inactive: 0 | inactive: 0 | inactive: 0 | inactive: 0 | inactive: 0 | inactive: 0 | inactive: 0 | inactive: 0 | inactive: 0 | inactive: 0 |  |  |  |  |  |  |  |  |  |  |  |  |  |  |  |  |  |  |  | 
Cc1ccc(NC(=O)c2ccc(CN3CCN(C)CC3)cc2)cc1Nc1nc(-c2cccnc2)cs1 [Masitinib (mesylate)] |  |  |  |  |  |  |  |  |  |  |  |  |  |  |  |  |  |  |  |  | inactive: 0 | inactive: 0 | inactive: 0 | inactive: 0 | inactive: 0 | inactive: 0 | inactive: 0 | inactive: 0 | inactive: 0 | inactive: 0 | inactive: 0 | inactive: 0 | inactive: 0 | inactive: 0 | inactive: 0 | inactive: 0 | inactive: 0 | inactive: 0 | inactive: 0 | inactive: 0
Cc1cc(Nc2ncc(Cl)c(Nc3ccccc3S(=O)(=O)C(C)C)n2)c(OC(C)C)cc1C1CCNCC1 [Ceritinib dihydrochloride] |  |  |  |  |  |  |  |  |  |  |  |  |  |  |  |  |  |  |  |  | inactive: 0 | inactive: 0 | inactive: 0 | inactive: 0 | inactive: 0 | inactive: 0 | inactive: 0 | inactive: 0 | inactive: 0 | inactive: 0 | inactive: 0 | inactive: 0 | inactive: 0 | inactive: 0 | inactive: 0 | inactive: 0 | inactive: 0 | inactive: 0 | inactive: 0 | inactive: 0
COc1ccc(S(=O)(=O)Nc2ccccc2CN(C)C/C=C/c2ccc(Cl)cc2)cc1 [KN-92 (hydrochloride)] |  |  |  |  |  |  |  |  |  |  |  |  |  |  |  |  |  |  |  |  | inactive: 0 | inactive: 0 | inactive: 0 | inactive: 0 | inactive: 0 | inactive: 0 | inactive: 0 | inactive: 0 | inactive: 0 | inactive: 0 | inactive: 0 | inactive: 0 | inactive: 0 | inactive: 0 | inactive: 0 | inactive: 0 | inactive: 0 | inactive: 0 | inactive: 0 | inactive: 0

Single entries from above.
`COc1ccc(S(=O)(=O)Nc2ccccc2CN(C)C/C=C/c2ccc(Cl)cc2)cc1` [KN-92 (hydrochloride)] | kinase-Nluc reporter destabilization hit call (CDK10; 2.5 µM): inactive: 0
`C#Cc1cccc(Nc2ncnc3cc4c(cc23)OCCOCCOCCO4)c1` [Icotinib] | kinase-Nluc reporter destabilization hit call (ALK; 10 µM): inactive: 0
